Assay results: the supplement of paper PMC4604168 (melanoma cell lines)
This is one part of the list. Repeats are few or missing, and single values can be far off.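 Cells were imaged in 1,536-well plates, and nuclei stained with an antibody against cleaved PARP were counted against all DNA-stained nuclei to give the apoptosis fraction. Screening doses were chosen to leave most cells alive, and resting and induced cleaved-PARP levels differ strongly between cell lines.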

Experiments:
Experiment in all cases: cleaved PARP positive nuclei fraction relative to DMSO control; melanoma cells; higher = more apoptosis
Details in all cases: library dose: low library concentration; 72 h
[1] = system: 501Mel
[2] = system: A101D
[3] = system: A2058
[4] = system: C32
[5] = system: CBRC008 (line from a melanoma biopsy)
[6] = system: CBRC014 (line from a melanoma biopsy)
[7] = system: CBRC016 (line from a melanoma biopsy)
[8] = system: CBRC017 (line from a melanoma biopsy)
[9] = system: COLO792
[10] = system: COLO800
[11] = system: COLO829
[12] = system: G361
[13] = system: IPC-298
[14] = system: IST-MEL1
[15] = system: LB2518-MEL
[16] = system: LOXIMVI

Structure (SMILES)	cleaved PARP positive nuclei fraction [1] [%]	cleaved PARP positive nuclei fraction [2] [%]	cleaved PARP positive nuclei fraction [3] [%]	cleaved PARP positive nuclei fraction [4] [%]	cleaved PARP positive nuclei fraction [5] [%]	cleaved PARP positive nuclei fraction [6] [%]	cleaved PARP positive nuclei fraction [7] [%]	cleaved PARP positive nuclei fraction [8] [%]	cleaved PARP positive nuclei fraction [9] [%]	cleaved PARP positive nuclei fraction [10] [%]	cleaved PARP positive nuclei fraction [11] [%]	cleaved PARP positive nuclei fraction [12] [%]	cleaved PARP positive nuclei fraction [13] [%]	cleaved PARP positive nuclei fraction [14] [%]	cleaved PARP positive nuclei fraction [15] [%]	cleaved PARP positive nuclei fraction [16] [%]
CNC(=O)c1cc(Oc2ccc(NC(=O)Nc3ccc(Cl)c(C(F)(F)F)c3)cc2)ccn1 [sorafenib] + COc1cc2ncnc(Nc3ccc(Oc4ccccc4)cc3)c2cc1OC [SrcI1] (first compound 0.4 µM, partner dose 2 µM)	152	37	91.7	88.5	55.8	83.1	29.2	92.2	169	62.5	80.4	44.5	200	48.3	114	51
CC(C)C[C@H](NC(=O)[C@H](Cc1ccccc1)NC(=O)c1cnccn1)B(O)O [Bortezomib] + Oc1cc(-c2nc(-c3ccccc3)[nH]c2-c2ccncc2)ccc1Cl [L779450] (first compound 0.001 µM, partner dose 0.2 µM)	155	29.8	149	40.5	419	261	133	148	100	87.3	212	1450	153	225	314	73.4
C[C@@H](Oc1cc(-c2cnn(C3CCNCC3)c2)cnc1N)c1c(Cl)ccc(F)c1Cl [Crizotinib] + COC(=O)c1sccc1S(=O)(=O)Nc1ccc(Nc2ccccc2)cc1OC [GSK0660] (first compound 0.2 µM, partner dose 1 µM)	227	26.5	65.3	82	93.7	191	78.6	209	115	96.2	107	104	61.5	39.2	35.1	112
CC(C)C[C@H](NC(=O)[C@H](Cc1ccccc1)NC(=O)c1cnccn1)B(O)O [Bortezomib] + Cc1cc([N+](=O)[O-])ccc1NS(=O)(=O)c1cc(Cl)ccc1Cl [FH535] (first compound 0.001 µM, partner dose 1 µM)	271	131	34.8	104	1140	167	1560	416	54.7	86.9	165	1690	135	115	154	143
O=C(O)c1ccc2c(c1)nc(Nc1cccc(Cl)c1)c1ccncc12 + COC(=O)c1sccc1S(=O)(=O)Nc1ccc(Nc2ccccc2)cc1OC [GSK0660] (first compound 0.4 µM, partner dose 1 µM)	55	17.4	62.2	71.1	48.8	164	92.3	163	104	49.7	118	226	132	112	53.8	248
CC(C)C[C@H](NC(=O)[C@H](Cc1ccccc1)NC(=O)c1cnccn1)B(O)O [Bortezomib] + COc1cc2ncnc(Nc3ccc(Oc4ccccc4)cc3)c2cc1OC [SrcI1] (first compound 0.001 µM, partner dose 2 µM)	139	223	69.6	94.7	2460	919	412	495	59.4	30.5	243	2570	74.6	162	188	71.5
CCCS(=O)(=O)Nc1ccc(F)c(C(=O)c2c[nH]c3ncc(Cl)cc23)c1F + COc1ccc(-c2ccc3c(N4CCOCC4)nc(N4C[C@@H](C)O[C@@H](C)C4)nc3n2)cc1CO [KU0063794] (first compound 0.08 µM, partner dose 0.02 µM)	116	31.5	70.7	117	317	293	52.1	82.8	139	34.4	63.2	341	52.3	100	60.5	218
CS(=O)(=O)CCNCc1ccc(-c2ccc3ncnc(Nc4ccc(OCc5cccc(F)c5)c(Cl)c4)c3c2)o1 [lapatinib] + COc1ccc(-c2ccc3c(N4CCOCC4)nc(N4C[C@@H](C)O[C@@H](C)C4)nc3n2)cc1CO [KU0063794] (first compound 0.8 µM, partner dose 0.02 µM)	65.9	55.1	152	95.7	61.1	121	41.3	93.4	70.2	83.2	87.3	63.2	69.2	160	71.1	15.3
CCCS(=O)(=O)Nc1ccc(F)c(C(=O)c2c[nH]c3ncc(Cl)cc23)c1F + CCN(CC)CCCCNc1ncc2cc(-c3cc(OC)cc(OC)c3)c(NC(=O)NC(C)(C)C)nc2n1 [PD173074] (first compound 0.08 µM, partner dose 0.1 µM)	46.3	72.7	115	98.9	89.5	91.1	27.3	95.4	57.7	30.1	132	114	93	79.7	67.3	80.9
CCCS(=O)(=O)Nc1ccc(F)c(C(=O)c2c[nH]c3ncc(Cl)cc23)c1F + Oc1cc(-c2nc(-c3ccccc3)[nH]c2-c2ccncc2)ccc1Cl [L779450] (first compound 0.08 µM, partner dose 0.2 µM)	74.9	40.4	45.8	71.9	32	97.6	39	87	97.6	117	100	226	55.7	119	70.1	146
CCCS(=O)(=O)Nc1ccc(F)c(C(=O)c2c[nH]c3ncc(Cl)cc23)c1F + COc1cc2ncnc(Nc3ccc(Oc4ccccc4)cc3)c2cc1OC [SrcI1] (first compound 0.08 µM, partner dose 2 µM)	143	23.4	25.9	57.6	177	133	63.9	171	71.7	85.5	82.5	97.8	34.8	169	24.1	85.7
Nc1ncn([C@H]2C[C@H](O)[C@@H](CO)O2)c(=O)n1 [decitabine] + Oc1cc(-c2nc(-c3ccccc3)[nH]c2-c2ccncc2)ccc1Cl [L779450] (first compound 0.1 µM, partner dose 0.2 µM)	81.9	32.9	67	95.3	188	127	25.5	89	176	36.1	143	121	150	98.4	93.2	40.2
C=C(c1ccc(C(=O)O)cc1)c1cc2c(cc1C)C(C)(C)CCC2(C)C [Bexarotene] + COc1cc(N2CCC(N3CCN(C)CC3)CC2)ccc1Nc1ncc(Cl)c(Nc2ccccc2S(=O)(=O)C(C)C)n1 [NVP-TAE684] (first compound 2 µM, partner dose 0.08 µM)	120	21.8	99.2	125	123	138	94.3	115	57.3	202	116	91.1	91	48.5	39.5	67.3
C=C(c1ccc(C(=O)O)cc1)c1cc2c(cc1C)C(C)(C)CCC2(C)C [Bexarotene] + Cc1cc([N+](=O)[O-])ccc1NS(=O)(=O)c1cc(Cl)ccc1Cl [FH535] (first compound 2 µM, partner dose 1 µM)	70.1	41.5	84.2	73.8	339	173	427	180	68.1	80.6	90.6	170	53.4	64.1	74.2	99.7
C=C(c1ccc(C(=O)O)cc1)c1cc2c(cc1C)C(C)(C)CCC2(C)C [Bexarotene] + CC(C)CCN1c2nc(Nc3cc(F)c(O)c(F)c3)ncc2N(C)C(=O)C1C [BID1870] (first compound 2 µM, partner dose 0.2 µM)	31.4	14.5	63.6	39.3	192	141	154	130	113	67.6	113	152	104	118	68.4	48
O=C(O)c1ccc2c(c1)nc(Nc1cccc(Cl)c1)c1ccncc12 + O=C(Nc1ccccc1)c1cc([N+](=O)[O-])ccc1Cl [GW9662] (first compound 0.4 µM, partner dose 2 µM)	60.9	49.6	158	133	142	106	190	153	16.7	257	138	145	65.9	47.7	118	91.9
CO[C@H]1C[C@@H]2CC[C@@H](C)[C@@](O)(O2)C(=O)C(=O)N2CCCC[C@H]2C(=O)O[C@H]([C@H](C)C[C@@H]2CC[C@@H](OCCO)[C@H](OC)C2)CC(=O)[C@H](C)/C=C(\C)[C@@H](O)[C@@H](OC)C(=O)[C@H](C)C[C@H](C)/C=C/C=C/C=C/1C [everolimus] + Oc1nc(-c2ccc(C(F)(F)F)cc2)nc2c1CSCC2 [XAV939] (first compound 0.02 µM, partner dose 2 µM)	114	34.3	117	637	183	88.8	86.1	84	292	102	114	241	126	174	119	161
Cc1cc(Nc2cc(N3CCN(C)CC3)nc(/C=C/c3ccccc3)n2)n[nH]1 + O=C(O)C(=O)Nc1sc2c(c1C(=O)O)CCNC2 [TCS401] (first compound 0.04 µM, partner dose 1.66667 µM)	198	51.2	114	148	57.1	95.8	44.6	97.4	92.4	116	187	21.4	58.7	75.6	122	73.4

A stretch from further up, for reference:
Structure (SMILES)	cleaved PARP positive nuclei fraction [1] [%]	cleaved PARP positive nuclei fraction [2] [%]	cleaved PARP positive nuclei fraction [3] [%]	cleaved PARP positive nuclei fraction [4] [%]	cleaved PARP positive nuclei fraction [5] [%]	cleaved PARP positive nuclei fraction [6] [%]	cleaved PARP positive nuclei fraction [7] [%]	cleaved PARP positive nuclei fraction [8] [%]	cleaved PARP positive nuclei fraction [9] [%]	cleaved PARP positive nuclei fraction [10] [%]	cleaved PARP positive nuclei fraction [11] [%]	cleaved PARP positive nuclei fraction [12] [%]	cleaved PARP positive nuclei fraction [13] [%]	cleaved PARP positive nuclei fraction [14] [%]	cleaved PARP positive nuclei fraction [15] [%]	cleaved PARP positive nuclei fraction [16] [%]
CO[C@H]1C[C@@H]2CC[C@@H](C)[C@@](O)(O2)C(=O)C(=O)N2CCCC[C@H]2C(=O)O[C@H]([C@H](C)C[C@@H]2CC[C@@H](OCCO)[C@H](OC)C2)CC(=O)[C@H](C)/C=C(\C)[C@@H](O)[C@@H](OC)C(=O)[C@H](C)C[C@H](C)/C=C/C=C/C=C/1C [everolimus] + Oc1nc(-c2ccc(C(F)(F)F)cc2)nc2c1CSCC2 [XAV939] (first compound 0.02 µM, partner dose 2 µM)	114	34.3	117	637	183	88.8	86.1	84	292	102	114	241	126	174	119	161
Cc1cc(Nc2cc(N3CCN(C)CC3)nc(/C=C/c3ccccc3)n2)n[nH]1 + O=C(O)C(=O)Nc1sc2c(c1C(=O)O)CCNC2 [TCS401] (first compound 0.04 µM, partner dose 1.66667 µM)	198	51.2	114	148	57.1	95.8	44.6	97.4	92.4	116	187	21.4	58.7	75.6	122	73.4
